This test is described as follows: qHTS Assay for Lipid Storage Modulators in Drosophila S3 Cells.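 On cell number change: cells counted by Cell Tracker Red CMTPX staining in the red channel.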 The following applies: BODIPY lipid droplet fluorescence, 18-24 h; for cell number change: measured here: cell count max response, cells fed with added oleic acid. From the text:
NIH Molecular Libraries Probe Production Centers Network [MLPCN] NIH Chemical Genomics Center [NCGC] MLPCN Grant: 1 R03 MH085686-01 Assay Submitter (PI): Beller, Mathias; Max-Planck-Institut fur Biophysikalische Chemie NCGC Assay Overview: Storing lipids as a reservoir for energy or the anabolism of elementary metabolites is a common feature of probably all cells and is conserved from bacteria to humans. The universal cellular lipid storage organelle is the so-called lipid storage droplet (LD). Although ubiquitous, LDs share a simple structure composed of a hydrophobic core that harbors the storage lipids, which is shielded by a droplet-specific phospholipid monolayer to which proteins are attached. The current model of LD biogenesis involves an incorporation of the lipid core into the membrane leaflets of the endoplasmic reticulum (ER) followed by a subsequent budding-like maturation of a LD, which ultimately pinches off. Once released, LD volume can increase by localized lipogenesis or fusion of existing droplet. Storage lipids are re-mobilized enzymatically by lipase activity. Lipase regulation in the adipocyte is heavily studied and involves multiple components including catecholamine signaling, the LD-associated proteins Perilipin and comparative gene identification (CGI-58) and at least two lipases named hormone sensitive lipase (HSL) and adipocyte triglyceride lipase (ATGL). LD regulation outside of the adipocyte is poorly understood and only few components are known. However, there is an urgent need to learn more about ectopic fat depots as mislocalized storage of lipids, for example in the liver or muscle, is an eminent health problem associated with insulin resistance or the metabolic syndrome. We developed a laser-scanning cytometer assay to enable 1,536-well screening and combined the results of the small molecules screen with an RNAi database based on lipid storage.
Triacsin C (Sigma-Aldrich T-4540), an inhibitor of long-chain fatty acyl CoA synthetase that blocks synthesis of triglycerides, was used as a positive control for lipid under-storage. A total of 23 nL of compound solution of different concentrations were transferred to the assay plates using a Kalypsys pin tool equipped with a 1,536-pin array containing 10-nL slotted pins (FP1S10, 0.457-mm diameter, 50.8 mm long; V&P Scientific). One microliter of oleic acid (400 uM) was added, and the plate was lidded with stainless steel rubber gasket lined lids containing pinholes. […] Fluorescence was detected by excitation of the fluorophores with a 488-nm laser on an Acumen Explorer (TTP Lab Tech). The total intensity in channel 2 (500-530 nm) reflected lipid droplet accumulation. Cells were detected using channel 3 (575-640 nm) with 5-um width and 100-um depth filters. The ratio of the number of objects in PMT channel 2 over the number of objects in PMT channel 3 was also calculated. Percent activity was computed relative to an internal control (100% inhibited lipid droplet deposition due to the presence of 20 uM Triacsin C), which was added to 32 wells/plate.
Background: Quantitative high-throughput screening tests each substance at several concentrations.

Setting [1] is: measured here: cell number channel AC50, cells fed with added oleic acid.
The mark [2] stands for this setting: measured here: lipid fluorescence (Fed channel) AC50, cells fed with added oleic acid.

The structures appear in SMILES notation. This is one part of the list. The main result of the screen is listed elsewhere. These columns were measured beside it and carry no call. Compounds called inactive in the main read-out are mostly missing here. Words in brackets tell the shape of the fitted curve; partial curves, single points and poor fits give uncertain potencies.

As a reminder, the AC50 is the concentration giving half of the maximal activity seen. Lower therefore signals greater potency. As for `CCOC(=O)c1sc(N2C(=O)C(O)=C(C(=O)c3ccc(C)o3)C2c2cccc([N+](=O)[O-])c2)nc1C` (stereo unspecified), the cell number change is -36.5%. For the same compound, the half-maximal activity concentration (AC50) under setting [1] is 16.4 µM [falling, single point]. The AC50 under setting [2] is 29.1 µM [falling, single point].

Consider `CCS(=O)(=O)C1=NN2C(=N)/C(=C\c3ccc(OS(=O)(=O)c4ccccc4)c(OC)c3)C(=O)N=C2S1`, for which the cell number change was -7.08%. In addition, under setting [1], the AC50 was 6.51 µM [falling, single point]. In addition, the half-maximal activity concentration (AC50) under setting [2] was 0.58 µM [falling, single point].

For the origin of these results see PubChem BioAssay AID2685 (National Center for Advancing Translational Sciences (NCATS), 2010).
